Measurements published in the supplement of paper PMC10735217.
Where a name gives a salt, the structure may show the parent alone. This is one part of the list. Single values are uncertain here, since repeats match poorly.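 In a drug-repurposing library screen, luminescence reads luciferase driven by eight TEAD-binding elements, stably integrated into human kidney-derived cells. Compounds scoring over five robust Z scores above the plate mean are called hits.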

Test system: HEK293A TEAD-LUC reporter
Test: TEAD-luciferase reporter activity (YAP activation), robust Z score vs plate; higher = stronger YAP/TEAD activation
Settings: 24 h

| Structure (SMILES) | TEAD-luciferase reporter activity (compound concentration: 200 nM) | TEAD-luciferase reporter activity (compound concentration: 2 uM) | TEAD-luciferase reporter activity (compound concentration: 10 uM) |
| --- | --- | --- | --- |
| CCO/N=C(\c1ccc(Br)cc1)C1CCN(C2(C)CCN(C(=O)c3c(C)cc[n+]([O-])c3C)CC2)CC1 | inactive: -0.233 | inactive: -0.501 | inactive: -0.495 |
| CC(C)=CCSCC(N)C(=O)O (centres undefined) [prenisteine] | inactive: -0.579 | inactive: 0.0752 | inactive: -1.35 |
| Cc1cccc(NC(=O)Nc2ccc(-c3csc4ncnc(N)c34)cc2)c1 | inactive: -2.65 | inactive: -2.43 | inactive: -1.76 |
| O=C1c2ccccc2-c2c1c1ccccc1c(=O)n2CC1CC1 | inactive: 1.54 | inactive: -1.07 | inactive: 2.56 |
| CC(C)(C)Sc1c(CC(C)(C)C(=O)O)n(Cc2ccc(Cl)cc2)c2ccc(OCc3ccc4ccccc4n3)cc12 [quiflapon] | inactive: 0.197 | inactive: -0.0347 | inactive: 3.4 |
| CCCCCCCC(=O)CC[C@@H]1[C@@H](C/C=C\CCCC(=O)OC(C)C)[C@@H](O)C[C@H]1O [isopropyl unoprostone] | inactive: -0.102 | inactive: 0.122 | inactive: 1.35 |
| O=C(O)Cc1ccccc1Nc1ccccc1 | inactive: -1.35 | inactive: -1.31 | inactive: 0.239 |
| Fc1ccc(CN2CCC(Nc3ccc(C(F)(F)F)nn3)CC2)cc1F | inactive: -0.364 | inactive: 0.497 | inactive: -1.99 |
| CC(C)(C)c1cc(I)c(O)c(CN)c1 | inactive: -1.28 | inactive: -0.693 | inactive: 2 |
| CN=C(NC)NCc1ccc(OC)cc1 | inactive: -1.04 | inactive: 0.5 | inactive: -1.78 |
| CCNC(=O)[C@H]1O[C@@H](n2cnc3c(N)nc(C#CC(O)c4ccccc4)nc32)[C@H](O)[C@@H]1O (some centres undefined) | inactive: -1.59 | inactive: -0.198 | inactive: -0.353 |
| CC[C@H](C)[C@@H]1NC(=O)[C@H](Cc2ccc(O)cc2)NC(=O)CCCSC[C@@H](C(=O)N(CC(=O)N[C@@H](CC(C)C)C(=O)NCC(N)=O)Cc2ccc(F)cc2)NC(=O)[C@H](CC(N)=O)NC(=O)[C@H](CCC(N)=O)NC1=O | inactive: 0.555 | inactive: -0.866 | inactive: -0.224 |
| Cc1cnc(NC(=O)Nc2cc(Br)c(C)cc2OC[C@@H]2CNCCO2)cn1 [rabusertib] | inactive: -0.592 | inactive: -0.794 | inactive: -2.35 |
| CCCCOP(=O)(O)OC[C@H]1O[C@@H](n2cc(C)c(=O)[nH]c2=O)C[C@@H]1OP(=O)(O)OCCCC [bisphosphocins, Lakewood-Amedex] | inactive: -0.244 | inactive: 0.134 | inactive: 3.04 |
| COC(=O)C1=C(C)NC(C)=C(C(=O)OCCCN2C(=O)c3ccccc3S2(=O)=O)C1c1cccc(Cl)c1Cl (centres undefined) | inactive: -2.06 | inactive: -1.46 | inactive: -1.1 |
| C[C@@H]1N=C(N)NC(N(C)C)=N1 [imeglimin] | inactive: -0.81 | inactive: -1.21 | inactive: 0.389 |
| Cc1cccnc1NS(=O)(=O)c1ccc(C#Cc2ccc(O)c(C(=O)O)c2)cc1 | inactive: -0.599 | inactive: -0.41 | inactive: 0.962 |
| O=C(C1CCCN(C(=O)C2CC2)C1)N1CCC(N2CCCC2=O)CC1 (centres undefined) | inactive: -1.75 |  | inactive: 0.032 |
| C[C@@H](O)c1nc2cnc3ccsc3c2n1[C@H]1CC[C@@H](CC#N)OC1 | inactive: -1.07 | inactive: 1.01 | inactive: -0.0837 |
| COc1cc2c(cc1OC)C(=O)C(CN1CCC(O)(c3ccccc3)CC1)CC2 (centres undefined) | inactive: 0.0543 | inactive: 0.0529 | inactive: 1.27 |
| CC(C)(C(=O)O)c1ccc(C(O)CCCN2CCC(C(O)(c3ccccc3)c3ccccc3)CC2)cc1 (centres undefined) [fexofenadine, daily] |  | inactive: -1.05 |  |
| CC(C)(C(=O)O)c1ccc(C(O)CCCN2CCC(C(O)(c3ccccc3)c3ccccc3)CC2)cc1 (centres undefined) | inactive: -1.44 |  | inactive: -0.225 |
| CCS(=O)(=O)c1ccc(OC)c(Nc2cccc(N(C)c3ccc4c(C)n[nH]c4c3)n2)c1 | inactive: 1.29 | inactive: -1.38 | inactive: -1.07 |
| O=C(OCCN1CCCCCC1)C(c1ccsc1)C1CCCCC1 (centres undefined) [cetiedil] | inactive: -0.372 | inactive: 1.68 | inactive: 2.64 |
| CC(C)(Oc1ccc(Cl)cc1)C(=O)OCc1cccc(CO)n1 | inactive: -0.088 | inactive: -0.761 | inactive: 1.68 |
| O=C(O)CC1Sc2ccccc2N(Cc2nc3c(F)c(F)cc(F)c3s2)C1=O (centres undefined) | inactive: -0.836 | inactive: -1.17 | inactive: 4.66 |
| C[N+]1(CCC(O)(c2ccccc2)c2cccs2)CCOCC1 (centres undefined) [tiemonium metilsulfate] | inactive: -1.18 | inactive: 0.959 | inactive: 0.711 |

| Structure (SMILES) | TEAD-luciferase reporter activity (compound concentration: 200 nM) | TEAD-luciferase reporter activity (compound concentration: 2 uM) | TEAD-luciferase reporter activity (compound concentration: 10 uM) |
| --- | --- | --- | --- |
| N=C(N)N/N=C(/c1ccccc1)c1cc(Cl)ccc1N | inactive: -0.559 | inactive: -1.67 | inactive: 1.96 |
| CC(C)[C@@H]1NC(=O)[C@H](CCCCN)NC(=O)[C@@H](Cc2c[nH]c3ccccc23)NC(=O)[C@H](Cc2ccc(O)cc2)NC(=O)[C@@H](NC(=O)[C@H](N)Cc2ccc3ccccc3c2)CSSC[C@@H](C(=O)N[C@H](C(N)=O)[C@@H](C)O)NC1=O | inactive: -2.62 | inactive: -0.435 | inactive: -1.15 |
| CCOC(=O)CCCCCCCCC(C)c1ccc(I)cc1 (centres undefined) | inactive: -0.916 | inactive: 0.389 | inactive: 0.319 |
| Cc1sc(C)c2c1SCc1cnn(C)c1-2 | inactive: 1.04 | inactive: -2.15 | inactive: -0.211 |
| Clc1cccc(Cl)c1NC1=NCCN1 [Clonidine hydrochloride] | inactive: 3.41 |  | inactive: 0.117 |
| Clc1cccc(Cl)c1NC1=NCCN1 [Clonidine] |  | inactive: 0.814 |  |
| COC(=O)c1nc2cc(Cl)c3cccnc3c2o1 | inactive: -1.39 | inactive: -1.4 | inactive: 2.86 |
| CCOc1ccc(C[C@@H](NC(=O)c2ccccc2)C(=O)N[C@@H](Cc2ccccc2)C(=O)NCc2ccc(CN)cc2)cc1 | inactive: 0.39 | inactive: -1.37 | inactive: 1.27 |
| CS(=O)(=O)c1cc(F)cc2c3c(n(Cc4ccc(Cl)cc4)c12)[C@@H](CC(=O)O)CC3 [laropiprant] | inactive: -0.914 | inactive: -0.42 | inactive: -0.145 |
| O=C(Nc1ccc(Br)c2ccccc12)C1CCN(C(=O)Cn2c(=O)sc3ccc(Cl)cc32)CC1 | inactive: 0.526 | inactive: -1.53 | inactive: 0.49 |
| O=C(CN(CCC1CCCC1)C(=O)N1CCC[C@H]1C(=O)Nc1ccc2c(c1)OCO2)NO | inactive: -0.184 | inactive: -1 | inactive: 1.61 |
| CCc1c(C(=O)c2cc(C)cc(C)c2)[nH]c(=O)[nH]c1=O | inactive: -1.43 | inactive: -0.525 | inactive: -1.58 |
| CC[C@@H](C)[C@@H]1NC(=O)[C@H]([C@@H](C)CC)NC(=O)[C@@H](Cc2c[nH]c3ccccc23)NC(=O)CCSCC[C@@H](C(=O)N(C)[C@H](CO)CCCN)NC(=O)[C@H](CC(N)=O)NC1=O | inactive: 1.65 | inactive: -0.607 | inactive: -0.657 |
| CC(C)[N+](C)(C)CC(O)COc1cccc2ccccc12 (centres undefined) | inactive: 3.32 | inactive: -0.282 | inactive: 0.412 |
| CC(C(=O)O)c1cccc2c(-c3ccccc3)coc12 (centres undefined) [furaprofen] | inactive: 0.63 | inactive: -0.315 | inactive: -1.65 |
| OC(CN1CCC(Cc2ccc(F)cc2)CC1)c1ccc(Cl)cc1 (centres undefined) [Eliprodil] | inactive: -1.35 | inactive: -1.66 | inactive: 2.9 |
| CCC(CC)Nc1c2c(nc3c(-c4ccc(OC)cc4Cl)c(C)nn13)CCC2 | inactive: -0.953 | inactive: -0.757 | inactive: -1.38 |
| COC(CN1CCN(c2ccccc2)CC1)c1ccc(C)nc1 (centres undefined) | inactive: -0.502 | inactive: 1.53 | inactive: 2.21 |
| CCC(OC(N)=O)C1CCCCC1 (centres undefined) [1-cyclohexylpropyl carbamate] | inactive: 0.974 | inactive: -0.496 | inactive: 0.936 |
| O=C(O)CCc1ccc(-c2ccc(Cl)cc2)o1 | inactive: 3.58 | inactive: -0.829 | inactive: -1.34 |
| CC(C)C[C@H]1CC[C@H](C(=O)COS(=O)(=O)c2ccccc2)CC1 | inactive: -1.77 | inactive: 0.297 | inactive: 0.443 |
| COc1ccc2c(c1)c(CN1CCN(C)CC1)cn2S(=O)(=O)c1ccccc1Br | inactive: -2.35 | inactive: -0.0944 | inactive: -1.64 |
| O=C1C(O)=C(CCCCCCCCC2CCCCC2)C(=O)c2ccccc21 | inactive: -1.65 | inactive: -1.12 | inactive: -0.247 |
| O=C(c1ccncc1)N1CCC(n2c(=O)[nH]c3ccccc32)CC1 | inactive: -0.498 |  | inactive: 0.42 |
| CN(C)CCN1C(=O)c2ccccc2N(C)c2ccccc21 | inactive: -0.749 | inactive: 0.537 | inactive: 0.00514 |
| Cc1ccccc1OCC(O)CO (centres undefined) | inactive: -1.08 | inactive: -1.52 | inactive: -1.53 |
| C[C@H](N)C(=O)N[C@@H](C)C(=O)NC1[C@H]2CN(c3nc4c(cc3F)c(=O)c(C(=O)O)cn4-c3ccc(F)cc3F)C[C@@H]12 (some centres undefined) [alatrofloxacin mesilate] | inactive: -0.204 | inactive: -0.102 | inactive: -0.958 |

Single records, as listed above.
COc1ccc2c(c1)c(CN1CCN(C)CC1)cn2S(=O)(=O)c1ccccc1Br as listed: TEAD-luciferase reporter activity (compound concentration: 200 nM): inactive: -2.35; TEAD-luciferase reporter activity (compound concentration: 2 uM): inactive: -0.0944; TEAD-luciferase reporter activity (compound concentration: 10 uM): inactive: -1.64
CC(C)[C@@H]1NC(=O)[C@H](CCCCN)NC(=O)[C@@H](Cc2c[nH]c3ccccc23)NC(=O)[C@H](Cc2ccc(O)cc2)NC(=O)[C@@H](NC(=O)[C@H](N)Cc2ccc3ccccc3c2)CSSC[C@@H](C(=O)N[C@H](C(N)=O)[C@@H](C)O)NC1=O as listed: TEAD-luciferase reporter activity (compound concentration: 200 nM): inactive: -2.62; TEAD-luciferase reporter activity (compound concentration: 2 uM): inactive: -0.435; TEAD-luciferase reporter activity (compound concentration: 10 uM): inactive: -1.15
